Measured values reported in PMC6599030.
No constants are given. Whether binding was seen depends on the method and setting. Binding seen in cells or lysates may run through a third protein. Some entries that bind do so weakly or less than the wild type.

Chains of the proteins cited; added tags and fusions are not shown.
UniProt Q15836: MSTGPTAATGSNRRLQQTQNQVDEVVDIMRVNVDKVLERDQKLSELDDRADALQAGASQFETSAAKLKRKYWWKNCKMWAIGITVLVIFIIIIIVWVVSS

Biological target: GFP-VAMP3 (UniProt Q15836)
Experiment: co-IP; GFP-trap magnetic beads on lysates of stable hTERT-RPE1 cells expressing GFP-VAMP3 with mCherry-WDFY2, or mCherry-WDFY2 cells transfected with pEGFP-N2 as control; western blotting, 5% input

B1: mCherry-WDFY2 (protein, UniProt Q96P53 1-400)
chain: MAAEIQPKPLTRKPILLQRMEGSQEVVNMAVIVPKEEGVISVSEDRTVRVWLKRDSGQYWPSVYHAMPSPCSCMSFNPETRRLSIGLDNGTISEFILSEDYNKMTPVKNYQAHQSRVTMILFVLELEWVLSTGQDKQFAWHCSESGQRLGGYRTSAVASGLQFDVETRHVFIGDHSGQVTILKLEQENCTLVTTFRGHTGGVTALCWDPVQRVLFSGSSDHSVIMWDIGGRKGTAIELQGHNDRVQALSYAQHTRQLISCGGDGGIVVWNMDVERQETPEWLDSDSCQKCDQPFFWNFKQMWDSKKIGLRQHHCRKCGKAVCGKCSSKRSSIPLMGFEFEVRVCDSCHEAITDEERAPTATFHDSKHNIVHVHFDATRGWLLTSGTDKVIKLWDMTPVVS
In the case of B1, the binding is reported as “binds”.
